# Measurements from patent US6589937B1 (Kabushiki Kaisha Yakult Honsha, priority 1996, dated 2003).
# [ ]: non-standard residue; d: D form. The star is where a group is joined. X1 = N=C(N)NCCC[C@H](N)C(=O)N[C@@H](Cc1c[nH]cn1)C(=O)N1CCC[C@H]1C(=O)N[C@@H](CS*)C(=O)O; pGlu = O=C1CC[C@@H](C(=O)O)N1
# Test: general procedure: Boc solid-phase peptide synthesis
# Details: oxidative folding step
substance,measurement,value
[pGlu]NC(X1)PRG-NH2 (SMILES N=C(N)NCCC[C@H](NC(=O)[C@@H]1CCCN1C(=O)[C@H](CSSC[C@H](NC(=O)[C@@H]1CCCN1C(=O)[C@H](Cc1c[nH]cn1)NC(=O)[C@@H](N)CCCNC(=N)N)C(=O)O)NC(=O)[C@H](CC(N)=O)NC(=O)[C@@H]1CCC(=O)N1)C(=O)NCC(N)=O),oxidative folding yield,about 80%
